# According to PubChem BioAssay AID651640 (Broad Institute, 2012):
# Where “and” joins values, the source holds several entries; their conditions need not be identical. Equal entries are not always repeated. In all, about 350,000 compounds went through this assay and about 6,000 (1.7%) were called active. This list was built around the results that the source calls inconclusive (neither active nor inactive); the mix of calls is not that of the screen. Cut-off read from the data, not from the text of the source: active = CPE inhibition above about 20% (passing the limit was not always enough); inconclusive = no clear call, values can overlap the other calls; tested in BHK-21 cells.
# Assay: protection of cells from dengue 2 killing – plate reader, single concentration, primary screen (AID 651640);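 note: 0% = median of neutral control wells and 100% = median of positive control wells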
# Conditions: DENV2-infected cells, cytopathic effect rescue, at 9.99 µM, active compounds read high
row,Structure (SMILES),CPE inhibition
1,COc1ccc(S(=O)(=O)Nc2ccc3c(c2)C(=O)N([C@H](C)CO)C[C@@H](C)[C@H](CN(C)Cc2ccncc2)O3)cc1,inconclusive: 25.8%
2,C=CCOC(=O)C1=C[C@@H](C2CCCCC2)C[C@@H](OCc2ccc(CO)cc2)O1,active: 48.3%
3,COc1ccc(/C=N/Nc2nc(N3CCCCC3)nc(N3CCCCC3)n2)cc1[N+](=O)[O-],inconclusive: 20.4%
4,CCOC(=O)C1CCCN(S(=O)(=O)CCNC(=O)c2ccccc2)C1 (stereo not given),inconclusive: 51%
5,O=C(O)C[C@@H]1C[C@@H]2c3cc(NC(=O)c4ccc5c(c4)OCO5)ccc3O[C@@H]2[C@H](CO)O1,inactive: 4.45%
6,CCCNC(=O)N1CC2(CCN(CC3CCCCC3)CC2)c2c([nH]c3cc(OC)ccc23)[C@@H]1CO,inconclusive: 24.9%
7,CCOC(=O)C1(CCOc2ccccc2)CCN(Cc2ccc(O)cc2)CC1,inconclusive: 42.6%
8,COc1cccc(S(=O)(=O)Nc2ccc3c(c2)C(=O)N(C)[C@H]2CC[C@H](CC(=O)Nc4ccc(C(C)C)cc4)O[C@@H]2CO3)c1,inactive: -4.08%
9,CN(C)c1cccc(-c2cc(Nc3ccc(C(C)(C)C)cc3)ncn2)c1,inconclusive: 24.6%
10,COc1ccc(Br)cc1CNC(=O)CCC(=O)n1nc(C)c2ccccc21,inconclusive: 40.2%
11,Cc1nc2ccccc2cc1C(=O)N(C)Cc1ccccc1,inconclusive: 27.3%
12,CN(C)S(=O)(=O)c1cccc(C(=O)N=C2N=C3C=CC(Cl)=CN3Cc3ccccc32)c1,inactive: 9.49%
13,CC(C)C1Cc2nc(Cl)c(C#N)cc2CO1 (stereo not given),inconclusive: 28.3%
14,CCCN1C[C@H](C)[C@H](OC)CN(C)C(=O)c2ccc(NC(=O)c3cnccn3)cc2OC[C@@H]1C,inactive: -1.19%
15,CCC(=O)Nc1ccc2c(c1)OC[C@H](C)N(Cc1ccccc1C(=O)O)C[C@@H](C)[C@@H](OC)CN(C)C2=O,inactive: 2.29%
16,O=C(Cn1c(=O)oc2ccccc21)Nc1cccc(Cl)c1,inconclusive: 31.2%
17,C[C@@H]1CN([C@@H](C)CO)C(=O)CCCn2nncc2CO[C@H]1CN(C)S(=O)(=O)c1ccc2c(c1)OCCCO2,inactive: -10.3% and inactive: 1.38%
18,CCN(C[C@H]1N[C@@](Cc2ccccc2)(C(=O)OC)[C@H]2C(=O)N(Cc3ccccc3)C(=O)[C@@H]12)S(=O)(=O)c1ccc(C)cc1,inactive: 14.8%
19,COc1cc(-c2nnc(COC(=O)c3ccc([N+](=O)[O-])o3)o2)cc(OC)c1OC,inconclusive: 22.3%
20,O=S(=O)(c1ccc(F)cc1)N1C[C@@H]2N[C@H](C1)C2c1ccc(/C=C/c2ccccc2)cc1 (stereo not given in full),inactive: 9.96% and inactive: 8.29%
21,COc1cc(C(=O)NCC(c2ccco2)N2CCc3ccccc32)cc(OC)c1OC (stereo not given),active: 92%
22,CC(C)NC(=O)Nc1ccc2c(c1)C(=O)N([C@H](C)CO)C[C@@H](C)[C@@H](CN(C)S(=O)(=O)c1cccs1)OCCCC[C@H](C)O2,inconclusive: 26.2%
23,COc1ccc2c3c(n(C)c2c1)[C@H](CO)N(Cc1ccccc1Cl)CC31CCN(C(=O)CC2CC2)CC1,active: 30.8%
24,CNC[C@@H]1OCCCC[C@@H](C)Oc2ccc(NC(=O)Nc3ccc(C(F)(F)F)cc3)cc2C(=O)N([C@@H](C)CO)C[C@H]1C,inconclusive: 33.8%

row,Structure (SMILES),CPE inhibition
1,C/C=C(\C)C(=O)Nc1cccc(C2=NOC3(C2)C[C@@H](C(N)=O)N(C(=O)c2ccccc2C(=O)c2ccccc2)C3)c1 (stereo not given in full),active: 22.7%
2,COC(=O)C1=C(C(=O)OC)[C@]2([C@@H]3CCCCN[C@@H](Cc4ccccc4)C(=O)N3Cc3ccccc3)C=C[C@H]1O2,inconclusive: 79.3%
3,CC1(C)c2[nH]c3ccccc3c2C[C@H]2C(=O)N(N)CC(=O)N21,inconclusive: 34.3%
4,COc1ccc(CCNC(=O)CSc2ccccc2)cc1OC,inactive: 7.04%
5,CCCNC(=O)N1C[C@@H](C)[C@H](OC)CN(C)C(=O)c2cc(NS(C)(=O)=O)ccc2OC[C@@H]1C,inactive: 12%
6,CC(C)(C)C(c1nc2ccccc2[nH]1)n1c(-c2ccsc2)nc2ccccc21 (stereo not given),inconclusive: 46.1%
7,COc1ccc(/C=N\NC(=O)c2ccc(-c3ccccc3)cc2)cc1COC(C)=O,active: 55.6%
8,COc1ccc(S(=O)(=O)N(C)C[C@H]2Oc3ccc(NC(=O)CCCN(C)C)cc3C(=O)N([C@@H](C)CO)C[C@H]2C)cc1,active: 33.5%
9,COc1ccc(S(=O)(=O)Nc2ccc3c(c2)C(=O)N([C@@H](C)CO)C[C@H](C)[C@@H](CN(C)Cc2ccc4c(c2)OCO4)OCCCC[C@@H](C)O3)cc1,active: 24.2%
10,COc1ccc2oc(C)c(C(=O)c3ccccc3)c2c1,inconclusive: 37.4%
11,O=C(N/C(=C\c1ccco1)C(=O)N1CCCCC1)c1ccc([N+](=O)[O-])cc1,inconclusive: 47%
12,CC(C)C(NC(=O)c1ccccc1NC(=O)c1ccccc1)C(=O)NNC(=O)c1ccncc1 (stereo not given),inconclusive: 34.1%
13,Cc1ccc2ccc[n+](Cc3ccccc3)c2c1,inconclusive: 35.1%
14,C[C@@H]1CCCCO[C@@H](CN(C)S(=O)(=O)c2cn(C)cn2)[C@H](C)CN([C@@H](C)CO)C(=O)c2cc(N(C)C)ccc2O1,active: 52.9%
15,O=C(CNC(=O)c1ccc(F)cc1)N/N=C/c1ccc(O)c([N+](=O)[O-])c1,inconclusive: 20.7%
16,CCOc1ccc(-c2cc(C(=O)NC3CCCCC3)[nH]n2)c(C)c1,inconclusive: 104%
17,CCN1CNC(=S)N(Cc2ccccc2)C1,inconclusive: 34.6%
18,COCC#Cc1ccc2c(c1)O[C@@H](CN(C)CC1CCCC1)[C@H](C)CN([C@H](C)CO)S2(=O)=O,inconclusive: 21.5%
19,O=C(C1CCCC1)N1C[C@H]2[C@@H](c3ccccc31)[C@H](CO)N2C(=O)c1cccnc1,inconclusive: 58.1%
20,O=c1[nH]c2ccccc2c(O)c1-c1ccccc1,inconclusive: 21.6%
21,C[C@@H]1CN([C@H](C)CO)C(=O)c2cccc(NS(=O)(=O)c3ccc(Cl)cc3)c2O[C@H]1CN(C)C,inactive: 0.872%
22,CCC(C)[C@H]1CNC(=S)N1CCc1cc(C(F)(F)F)cc(C(F)(F)F)c1 (stereo not given in full),active: 81.1%
23,C=CCN=C1NC(c2cccc(C(F)(F)F)c2)C(C(=O)OC)=C(C)N1Cc1ccccc1C(F)(F)F (stereo not given),inconclusive: 29%
24,CCC(=O)N1C[C@@H](C)[C@H](OC)CN(C)C(=O)c2ccc(NC(=O)c3cnccn3)cc2OC[C@H]1C,inactive: -7.5%

# Quoted from the listing:
# CPE inhibition, CCCNC(=O)N1C[C@@H](C)[C@H](OC)CN(C)C(=O)c2cc(NS(C)(=O)=O)ccc2OC[C@@H]1C is entered as inactive: 12%
# CPE inhibition, CCC(=O)N1C[C@@H](C)[C@H](OC)CN(C)C(=O)c2ccc(NC(=O)c3cnccn3)cc2OC[C@H]1C is entered as inactive: -7.5%

# (further entries)

row,Structure (SMILES),CPE inhibition
1,CC(Oc1cc2oc(=O)c3c(c2cc1Cl)CCCC3)C(=O)NCc1ccccn1 (stereo not given),inconclusive: 33.6%
2,COc1ccccc1NC(=O)C1=C(C)NC(=O)NC1c1cccs1 (stereo not given),inconclusive: 24.8%
3,COc1ccc(S(=O)(=O)N(C)C[C@@H]2Oc3ccc(NC(=O)CCCCCC(=O)Nc4ccccc4N)cc3C(=O)N([C@@H](C)CO)C[C@@H]2C)cc1,active: 35.6%
4,COc1cccc(CN2[C@H](CO)[C@H](c3ccccc3)C23CN(C(=O)C2CC2)C3)c1,inactive: 2.11%
5,O=C(C1CCN(C2CCN(CC3CC=CCC3)CC2)CC1)N1CCOCC1 (stereo not given),inconclusive: 22.7%
6,CCOC(=O)C1(C)CCN1C(=O)c1cccnc1Oc1ccccc1 (stereo not given),inactive: -3.4%
7,C[C@@H]1CN([C@H](C)CO)C(=O)c2cc(C3=CCCC3)cnc2O[C@H]1CN(C)C(=O)C1CCOCC1,active: 37.6%
8,CC(=O)Nc1ccc(-c2ccnc3c2CC(C)(C(=O)NCCN(C)C)O3)cc1 (stereo not given),inconclusive: 22.7%
9,COc1ccc2c3c([nH]c2c1)[C@@H](CO)N(C(=O)C1CCCC1)CC31CCN(C(=O)c2ccncc2)CC1,inactive: -1.22%
10,C[C@H]1CN([C@@H](C)CO)C(=O)c2cc(NC(=O)C3CC3)ccc2O[C@H]1CN(C)S(=O)(=O)c1cccs1,active: 35.9%
11,COc1ccc(C#Cc2ccc([C@@H]3[C@@H](CO)N4C(=O)CN(C(=O)c5ccccc5)C[C@H]34)cc2)cc1,inconclusive: 33.4%
12,Nc1ncccc1C(=O)OCC(=O)N1CCN(S(=O)(=O)c2ccc(Cl)cc2)CC1,active: 45.3%
13,Cc1noc(C)c1S(=O)(=O)Nc1ccc2c(c1)C(=O)N([C@@H](C)CO)C[C@@H](C)[C@H](CN(C)C(=O)Nc1ccccc1)OCCCC[C@@H](C)O2,active: 97.5%
14,NC(=O)[C@@H]1[C@H]2C(=O)O[C@H](c3ccccc3)[C@H](c3ccccc3)N2[C@H](c2ccc(O)cc2)[C@@]12C(=O)Nc1ccc(C#CC3=CCCCC3)cc12,inactive: 14.7%
15,CCN1CCCC1CNC(=O)c1ccc2c(c1)NC(=O)/C(=C\c1ccc(OC)c(OC)c1)S2 (stereo not given),inconclusive: 22.2%
16,CO[C@H]1CN(C)C(=O)c2cc(NC(=O)NC(C)C)ccc2OC[C@H](C)N(Cc2ccc(-c3ccccn3)cc2)C[C@H]1C,inactive: 6.54%
17,COC(=O)[C@H](CC(C)C)NC(=O)CC[C@H]1O[C@@H](n2cc(C)c(=O)[nH]c2=O)C[C@@H]1O,active: 69.8%
18,COc1ccccc1CNC(=O)C1CCC(CNS(=O)(=O)c2ccc(NC(C)=O)cc2)CC1 (stereo not given),inconclusive: 28.1%
19,COC[C@@H]1CCCN1[C@H]1CS(=O)(=O)N[C@@H]1COCc1ccccc1,inconclusive: 48.1%
20,C/C(=N\Nc1nc(C)cc(=O)[nH]1)C1CC1,inconclusive: 27.2%
21,COc1cccc(C2NC(=S)NC(C)=C2C(=O)c2ccccc2)c1OC (stereo not given),inactive: 3.72%
22,O=C(CN1CCC(NC(=O)c2ccccc2Cl)CC1)NCc1ccccc1,inconclusive: 42.5%

# Molecules listed so far containing two or more sulfur atoms:
row,Structure (SMILES),CPE inhibition
22,CC(C)NC(=O)Nc1ccc2c(c1)C(=O)N([C@H](C)CO)C[C@@H](C)[C@@H](CN(C)S(=O)(=O)c1cccs1)OCCCC[C@H](C)O2,inconclusive: 26.2%
10,C[C@H]1CN([C@@H](C)CO)C(=O)c2cc(NC(=O)C3CC3)ccc2O[C@H]1CN(C)S(=O)(=O)c1cccs1,active: 35.9%
